Source: patent publication US6943186B2, “Methods of treating sepsis” (Yung Shin Pharmaceutical Ind. Co., Ltd., priority 2002, dated 2005)
At least one structure is not confirmed: it was looked up by name or label, or the drawing left a doubt.

Assays:
[1] = test system: rat aortic smooth muscle cells; test: Cytotoxicity (MTT) assay and TUNEL labeling, SNP-induced apoptosis in RASMCs; format: cell-based; conditions: inhibitor added to Compound 3 + SNP
Method: Cell Culture Rat aortic smooth muscle cells (RASMCs) were prepared from Sprague-Dawley rats and cultured in Dulbecco's modified Eagle's medium (DMEM) supplemented with 10% FBS, 100 units/mL penicillin and 100 μg/mL streptomycin (Gibco, Grand Island, N.Y.) as previously described (Yang et al. (2001) Br J Pharmacol. 132: 1531-1541). Cells within six generations were used in the present study. Cells were identified being the smooth muscle cells by immunostaining with monoclonal antibody specific for smooth muscle α-actin.
Cytotoxicity Assay The cytotoxicity assay was carried out using the MTT assay method. MTT (3-(4,5-dimethylthiazol-2-yl)-2,5-diphenyltetrazolium bromide, Sigma Chemical, St. Louis, Mo.) was dissolved in phosphate-buffered saline (PBS) at a concentration of 5 mg/mL and filtered (Millipore, Bedford, Mass.). […] The extent of reduction of MTT to formazan within cells was quantified by the measurement of OD550 with an enzyme-linked immunosorbent assay (ELISA) reader.
In Situ Labeling of Apoptotic Cells In situ detection of apoptotic cells was carried out by using a terminal deoxynucleotidyl transferase (TdT) dUTP nick-end labeling (TUNEL) method with an apoptotic detection kit (Promega, Madison, Wis., USA) as described previously (Guh et al. (1998) Mol Pharmacol. 53: 467-474). […] Photomicrographs were obtained with a fluorescence microscope (Nikon).

[2] = test system: caspase-3; test: Determination of caspase-3 activity in RASMCs; format: cell-based, rat; conditions: inhibitor added to Compound 3 + SNP
Method: Determination of Caspase-3 Activity
The Caspase-3 activity was assayed with the Caspase-3 colorimetric assay kit (R&D Systems, Inc., Minneapolis, Minn.). After the treatment of cells with indicated agents for ten hours, cells were washed twice with ice-cold PBS, trypsinized, and centrifuged (800×g for 5 minutes), and the cell pellet was re-suspended in pre-cooled lysis buffer obtained from the Caspase-3 colorimetric assay kit. After 10 minutes of incubation on ice, cell homogenates were centrifuged at 10,000×g for 1 minute and supernatants were removed for the determination of caspase-3 activity. Proteolytic reactions were performed in a total volume of 100 μL reaction buffer containing 50 μL of cytosolic extracts and 5 μL DEVD-pNA obtained from the kit. The reaction mixture was incubated at 37° C. for one to two hours and the formation of p-nitroaniline was then measured at 405 nm by an ELISA reader.

[3] = test system: phosphorylated Akt; test: Western blot of phosphorylated Akt; format: cell-based, rat; conditions: Compound 3 alone or with SNP
Method: (§1) Western Blot Analysis After the exposure of cells to the indicated agents for four (for Bcl-2) or six (for cytochrome c) hours, cells were washed twice with ice-cold PBS and reaction was terminated by the addition of 100 μL ice-cold lysis buffer (10 mmol/L Tris-HCl, pH 7.4, 150 mmol/L NaCl, 1 mmol/L EGTA, 0.5 mmol/L phenylmethylsulfonyl fluoride (PMSF), 10 μg/mL aprotinin, 10 μg/mL leupeptin, and 1% Triton X-100). For the detection of phosphorylated Akt, 1 mmol/L Na3VO4, 1 mmol/L NaF, 50 mmol/L tetrasodium pyrophosphate, 10 nmol/L okadaic acid, 0.25% sodium deoxycholate were included in the lysis buffer. Protein content was determined by the Bio-Rad protein assay (Bio-Rad Laboratories, CA, USA). For Western blot analysis, cell lysates (25 μg/lane) were electrophoresized on 10-15% SDS-polyacrylamide gels, and transferred to a nitrocellulose membrane. The membranes were probed with anti-Bcl-2 or anti-α-tubulin monoclonal antibody, or anti-phosphorylated Akt polyclonal antibody. The transferred membranes were developed with a secondary anti-mouse or anti-rabbit antibody as we previously described (Guh et al. (1998) Eur. J. Pharmacol. 359: 281-284). Detection of signal was performed with an enhanced chemiluminescence detection kit (ECL; Amersham International, Little Chalfont, U.K.).

[4] = test system: Bcl-2; test: Western blot of Bcl-2 levels; format: cell-based, rat; conditions: inhibitor added to Compound 3 + SNP
Method: as §1

SMILES: COC[C@H]1OC(=O)c2coc3c2[C@@]1(C)C1=C(C3=O)[C@@H]2CCC(=O)[C@@]2(C)C[C@H]1OC(C)=O [wortmannin]
- effect on Compound 3-mediated anti-apoptotic action [1]: significantly reversed
- effect on Compound 3-mediated inhibition of caspase-3 activity [2]: partially but significantly reversed
- effect on Compound 3-induced phosphorylated Akt expression [3]: profoundly inhibited
- effect on preventive action of Compound 3 (Bcl-2 down-regulation) [4]: fully reversed
